Source: patent US9012404B2, “Compositions and methods for cardiac tissue protection and regeneration” (3D Matrix, Inc., priority 2006, dated 2015)
At least one peptide structure holds a part that was inferred or is arguable (an end, a ring closure or a residue).

System: CNS Lesions in Hamsters (severed optic tract)
Test: CNS Lesions in Hamsters 2-60 days
Format: in vivo

CC(=O)N[C@@H](CCCNC(=N)N)C(=O)N[C@@H](C)C(=O)N[C@@H](CC(=O)O)C(=O)N[C@@H](C)C(=O)N[C@@H](CCCNC(=N)N)C(=O)N[C@@H](C)C(=O)N[C@@H](CC(=O)O)C(=O)N[C@@H](C)C(=O)N[C@@H](CCCNC(=N)N)C(=O)N[C@@H](C)C(=O)N[C@@H](CC(=O)O)C(=O)N[C@@H](C)C(=O)N[C@@H](CCCNC(=N)N)C(=O)N[C@@H](C)C(=O)N[C@@H](CC(=O)O)C(=O)N[C@@H](C)C(N)=O [CardioMatrix, RADARADARADARADA]
CNS lesion repair: scarring and reinnervation: Reduced scarring and reinnervation
